Test results taken from publication PMC12607708.

Sequences of proteins named here, by UniProt entry; tags and fusion partners are left off.
UniProt Q14457: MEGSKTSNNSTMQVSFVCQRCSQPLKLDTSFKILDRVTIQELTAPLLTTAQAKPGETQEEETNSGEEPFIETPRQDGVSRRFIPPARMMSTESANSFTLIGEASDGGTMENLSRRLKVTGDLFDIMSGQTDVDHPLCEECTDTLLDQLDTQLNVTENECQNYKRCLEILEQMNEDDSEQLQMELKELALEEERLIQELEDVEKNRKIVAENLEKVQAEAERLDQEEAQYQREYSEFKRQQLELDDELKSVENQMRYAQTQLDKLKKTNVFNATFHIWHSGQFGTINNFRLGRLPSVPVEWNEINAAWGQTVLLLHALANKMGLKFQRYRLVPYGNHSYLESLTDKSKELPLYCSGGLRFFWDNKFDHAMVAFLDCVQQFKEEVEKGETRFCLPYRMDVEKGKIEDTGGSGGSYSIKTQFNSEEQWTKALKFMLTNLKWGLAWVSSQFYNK

Target: PikA in fusion with the GAL4 DNA-binding domain (Rickettsia rickettsii)
Test: two-hybrid

Question: “Beclin 1 in fusion with the GAL activation domain (from UniProt Q14457 1-450)” was tested. Which binding did it give?
Answer: binds

Results are given in words; binding and its absence hold for the method and conditions named. Binding can be weak; no strength is given.
